Test results as given in US8859599B2, “Androgen receptor modulating compounds, preparation and uses thereof” (priority 2009, dated 2014).
For at least one compound, name, drawing or mass did not settle the structure.

What was measured:
[1] = biological target: T1, human androgen receptor (hAR) (Homo sapiens, UniProt P10275); test: hAR transactivation assay (ARE-luciferase reporter) in Cos-7 cells; type: cell-based
T1 construct: The cDNA coding hAR was cloned into the pSG5 expression vector as reported previously; expressed in transfected cells; host or cells: Cos-7 cells transiently transfected with pSG5-hAR
T1 sequence (P10275 1-920): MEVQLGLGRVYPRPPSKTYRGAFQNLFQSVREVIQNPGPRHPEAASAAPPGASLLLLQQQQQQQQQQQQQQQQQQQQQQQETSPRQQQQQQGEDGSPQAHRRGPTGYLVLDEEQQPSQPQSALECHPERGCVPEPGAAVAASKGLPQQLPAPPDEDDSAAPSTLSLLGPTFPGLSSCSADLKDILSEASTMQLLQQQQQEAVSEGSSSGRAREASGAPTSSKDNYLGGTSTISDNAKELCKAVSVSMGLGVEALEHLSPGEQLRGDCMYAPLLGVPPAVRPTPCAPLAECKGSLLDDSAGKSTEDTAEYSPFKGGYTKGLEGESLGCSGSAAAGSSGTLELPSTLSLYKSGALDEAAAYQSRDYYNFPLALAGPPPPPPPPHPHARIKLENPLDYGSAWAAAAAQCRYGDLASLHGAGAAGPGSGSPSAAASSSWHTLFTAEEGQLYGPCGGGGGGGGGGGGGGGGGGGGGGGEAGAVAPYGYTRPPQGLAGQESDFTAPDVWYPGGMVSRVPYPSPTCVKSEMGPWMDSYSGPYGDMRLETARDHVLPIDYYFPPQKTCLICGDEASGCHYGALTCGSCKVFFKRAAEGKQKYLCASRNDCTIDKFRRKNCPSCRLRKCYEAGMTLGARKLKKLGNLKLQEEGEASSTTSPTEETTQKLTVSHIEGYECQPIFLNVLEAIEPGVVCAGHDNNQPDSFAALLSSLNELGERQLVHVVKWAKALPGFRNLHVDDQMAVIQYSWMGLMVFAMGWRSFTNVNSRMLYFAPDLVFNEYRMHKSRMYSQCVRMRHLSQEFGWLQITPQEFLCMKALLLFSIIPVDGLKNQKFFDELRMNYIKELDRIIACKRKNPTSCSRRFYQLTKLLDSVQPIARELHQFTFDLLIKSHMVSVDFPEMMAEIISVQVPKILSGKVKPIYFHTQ
Procedure: The cDNA coding hAR was cloned into the pSG5 expression vector as reported previously [Chang, C. S., et al., Science (1988)240:324-326]. The 3416 construct (ARE-Luc), containing four copies of the wild-type slp-HRE2 (5′-TGGTCAgccAGTTCT-3′) (SEQ ID No. 1) was cloned in the NheI site in pTK-TATA-Luc [Verrijdt, G. et al., J. Biol. Chem. (2000)275:12298-12305].
For androgen-stimulated transcriptional analysis, 32×10^4 Cos-7 cells were plated in phenol red-free DMEM containing 5% charcoal-stripped serum. After 48 h, the cells were transfected by Superfect (Qiagen) with 0.3 μg of 3416-pTK-TATA-Luc construct, together with 1.5 μg of either pSG5-empty plasmid or pSG5-hAR expressing plasmid. After 18 h, transfected cells were stimulated for 24 h with 10 nM of the synthetic androgen, R1881 (from Perkin-Elmer; dissolved in 0.001% ethanol, final concentration), in the absence or presence of the indicated concentrations of synthetic compounds. When indicated, the synthetic compounds were added alone to the cell medium. […] It was dissolved in 0.001% (final concentration) ethanol. Control cells were treated with the vehicle alone. Lysates were prepared and the luciferase activity was measured using a luciferase assay system (Promega). The results were corrected using CH110-expressed beta-galactosidase activity (Amersham Biosciences) and luciferase activity was expressed as fold induction. […]

LNCaP cells = test: Sulforhodamine B (SRB) in vitro chemosensitivity assay on LNCaP cells; type: cell-based; settings: 144 h exposure
Procedure: Sulforhodamine B (SRB) assay was used according to the method by Skehan et al. (JNCI, 1990). Briefly, cells were collected by trypsinization, counted and plated at a density of 5,000 cells/well in 96-well flat-bottomed microtiter plates (100 μl of cell suspension/well). In the chemosensitivity assay, experiments were run in octuplicate, and each experiment was repeated three times. The optical density (OD) of cells was determined at a wavelength of 490 nm by a colorimetric plate reader.
Growth inhibition and cytocidal effect of drugs were calculated according to the formula reported by Monks et al. (JNCI, 1991): [(ODtreated−ODzero)/(ODcontrol−ODzero)]×100%, when ODtreated is > to ODzero. If ODtreated is above ODzero, treatment has induced a cytostatic effect, whereas if ODtreated is below ODzero, cell killing has occurred. The ODzero depicts the cell number at the moment of drug addition, the ODcontrol reflects the cell number in untreated wells and the ODtreated reflects the cell number in treated wells on the day of the assay. TUNEL Assay
The authors examined the antitumour activity of the compounds for which the synthesis is described above, in the hormone-sensitive prostate cancer cell line LNCaP. […]
After 144-hr exposure time, the cytotoxic effect of the molecules was calculated according to the method of Monks et al. (Monks A, et al., J. Nat. Cancer Inst. 1991; 83: 757-66).

For `Cc1ccc(S(=O)(=O)N[C@](C)(CS(=O)(=O)c2ccc(F)cc2)C(=O)Nc2ccc(C#N)c(C(F)(F)F)c2)cc1` [(S)-26], the “agonistic activity, compound alone” value ([1]; 100 nM) was “shows agonistic activity”, the “inhibition of androgen-induced transcriptional activation (antagonistic activity)” value ([1]; cells challenged with 10 nM R1881, compound at 10 μM) was “Inhibition of androgen-induced transcriptional activation” and the “cytocidal (cell killing) activity” value (LNCaP cells) was “cytocidal activity”.
